# According to paper PMC5095800, “A standardized production pipeline for high profile targets from Mycobacterium tuberculosis” (Proteomics. Clinical Applications, 2016):
# Protein sequences, listed by entry. Tags and fused reporters are not part of them.
# UniProt P9WK17: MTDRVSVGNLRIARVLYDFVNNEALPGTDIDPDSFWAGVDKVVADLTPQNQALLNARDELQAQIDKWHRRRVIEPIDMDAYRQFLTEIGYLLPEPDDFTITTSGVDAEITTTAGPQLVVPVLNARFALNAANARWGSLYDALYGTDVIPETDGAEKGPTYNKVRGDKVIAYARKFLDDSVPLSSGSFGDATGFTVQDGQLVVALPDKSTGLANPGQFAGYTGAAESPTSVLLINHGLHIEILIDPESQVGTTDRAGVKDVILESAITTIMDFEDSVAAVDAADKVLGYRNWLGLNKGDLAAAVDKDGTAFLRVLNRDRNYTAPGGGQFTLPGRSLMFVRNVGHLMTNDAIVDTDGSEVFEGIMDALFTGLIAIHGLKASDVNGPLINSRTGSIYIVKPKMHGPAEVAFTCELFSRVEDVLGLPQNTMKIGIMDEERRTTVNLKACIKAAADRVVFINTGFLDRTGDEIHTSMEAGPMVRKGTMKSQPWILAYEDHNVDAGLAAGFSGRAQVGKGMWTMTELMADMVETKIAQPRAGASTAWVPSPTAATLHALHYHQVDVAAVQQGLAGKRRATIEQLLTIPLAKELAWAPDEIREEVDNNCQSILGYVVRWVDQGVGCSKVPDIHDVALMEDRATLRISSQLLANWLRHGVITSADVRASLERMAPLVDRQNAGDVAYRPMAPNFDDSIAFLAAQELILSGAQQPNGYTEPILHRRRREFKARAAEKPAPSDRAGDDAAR
# These are yes or no findings as the source states them, for the method shown.
# Target: Malate synthase G (GlcB) (Mycobacterium tuberculosis H37Rv) (UniProt P9WK17)
# Assay: SEC; both purified
substance,measurement,value
Malate synthase G (GlcB) (from UniProt P9WK17 1-741) (enzyme),binding,no binding
